In one assay the target is human plasma fibronectin (human). Put plainly: solid-phase binding assay (DELFIA); ligand coated on the plate (5 μg/cm^2, overnight at +4°C), blocked with Delfia Diluent; soluble GST-tagged receptor in Delfia Assay Buffer ± 2mM MgCl2 or MnCl2 or 5mM EDTA, 1h at RT; detected with Europium-labeled anti-GST antibody; both purified.
The next assay deals with collagen I. The description is as above.

Results are given in words; binding and its absence hold for the method and conditions named. For some assays here: Binding can be weak; no strength is given. Sequences can lack the tags named with a protein.

This note sets out measurements from paper PMC9616737 (2022).

B1: recombinant embigin extracellular domain GST-fusion protein (EMB-GST) (domain or fragment)
chain: DGSAPDSPFTSPPLREEIMANNFSLESHNISLTEHSSMPVEKNITLERPSNVNLTCQFTTSGDLNAVNVTWKKDGEQLENNYLVSATGSTLYTQYRFTIINSKQMGSYSCFFREEKEQRGTFNFKVPELHGKNKPLISYVGDSTVLTCKCQNCFPLNWTWYSSNGSVKVPVGVQMNKYVINGTYANETKLKITQLLEEDGESYWCRALFQLGESEEHIELVVLSYLVP
For B1, the binding entry is given as “binds” with human plasma fibronectin and “no binding (tested: 200 nM)” with collagen I.
